# Assay results taken from article PMC9258132, “Multi-omics profiling identifies a deregulated FUS-MAP1B axis in ALS/FTD–associated UBQLN2 mutants”.
# No constants are given. Whether binding was seen depends on the method and setting. In cells and extracts the contact can be indirect. These calls come from enrichment with a bait or labelling near it, and not all partners need be listed.
# B1: ubiquitin-binding protein FAF2 (UBXD8) (protein, UniProt Q96CS3 1-445)
# chain: MAAPEERDLTQEQTEKLLQFQDLTGIESMDQCRHTLEQHNWNIEAAVQDRLNEQEGVPSVFNPPPSRPLQVNTADHRIYSYVVSRPQPRGLLGWGYYLIMLPFRFTYYTILDIFRFALRFIRPDPRSRVTDPVGDIVSFMHSFEEKYGRAHPVFYQGTYSQALNDAKRELRFLLVYLHGDDHQDSDEFCRNTLCAPEVISLINTRMLFWACSTNKPEGYRVSQALRENTYPFLAMIMLKDRRMTVVGRLEGLIQPDDLINQLTFIMDANQTYLVSERLEREERNQTQVLRQQQDEAYLASLRADQEKERKKREERERKRRKEEEVQQQKLAEERRRQNLQEEKERKLECLPPEPSPDDPESVKIIFKLPNDSRVERRFHFSQSLTVIHDFLFSLKESPEKFQIEANFPRRVLPCIPSEEWPNPPTLQEAGLSHTEVLFVQDLTDE
# Biological target: HA-tagged MAP1B (microtubule-associated protein 1B) (human)
# Assay: affinity purification with mass spectrometry; HA immunoprecipitation from lysates of HeLa cells stably expressing HA-MAP1B (parental HeLa as negative control, n = 4); MCLB buffer (50 mM Tris pH 7.4, 150 mM NaCl, 0.5% NP40), anti-HA agarose overnight at 4°C, elution with HA peptide, label-free quantification
binder,measurement,value
B1,binding,binds
